Experimental data published in the supplement of paper PMC12889115.
The other results are listed elsewhere or left out. Values are raw readings; no control value is given beside them.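 Primary screen: polymyxin B was added at a level permeabilizing Salmonella outer membranes while sparing inner membranes. DMSO wells, both with and without polymyxin B, established maximum growth. Plate-to-plate variation meant each plate was ranked on its own, and the lowest-OD600 compounds were selected as hits.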

Test system: Salmonella enterica serovar Typhimurium SL1344
Experiment: bacterial growth OD600 after 18 h with compound and polymyxin B; higher = more bacterial growth (less inhibition)
Conditions: 50 µM, Mueller-Hinton broth

Row | Compound | bacterial growth OD600 (polymyxin B 0.75 µg/mL) | bacterial growth OD600 (polymyxin B 1 µg/mL)
1 | COCc1ccc(C(=O)Nc2ccc(-c3nc(CNC(=O)c4ccccc4N(C)C)c(C)o3)cc2)o1 | 0.002 | –
2 | COC(=O)c1ccc(CN2CCCC(c3[nH]ncc3Cc3ccccc3)C2)cc1 (centres undefined) | 0.92 | –
3 | CCOC(=O)N1CCN(C(=O)c2ccc3oc(CCc4ccccc4)nc3c2)CC1 | – | 0.902
4 | O=C(NCc1ccccc1Cl)C1CCC(=O)N(CC2CCCCC2)C1 (centres undefined) | – | 0.994
5 | CN1CCN(C(=O)CCc2nnc(-c3ccc(-c4ccccc4)cc3)o2)CC1 | – | 0.89
6 | O=C(c1ccccc1OC1CCN(CC2CCCC2)CC1)N1CCCCC1 | – | 1.01
7 | CCOc1cc(CN2CCC(CCC(=O)Nc3ccccc3)CC2)ccc1OC | – | 0.865
8 | CC#CC(=O)N1CCCC(N2CCN(c3cccc(Cl)c3)CC2)C1 (centres undefined) | – | 0.702
9 | COc1ccccc1CNC(=O)c1c(OC)cc(=O)n2c1CCN(CC1=CC[C@H]3C[C@@H]1C3(C)C)CC2 | 0.006 | –
10 | COCCn1cnc2cc(NC(=O)C3CCCCC3)cc(C(=O)NCCc3ccc(OC)cc3)c21 | 0.729 | –
11 | Cc1ccccc1N1CCN(C(=O)CC2(c3ccccc3C)CC(=O)N(CCN(C)C)C2=O)CC1 (centres undefined) | 0.775 | –
12 | O=C(NC(c1ccco1)C(F)(F)F)c1coc(Cn2cnc3ccccc32)n1 (centres undefined) | – | 0.924
13 | Cc1nc[nH]c1CN1CC[C@@H](N2CCN(c3ccccn3)CC2)[C@H](O)C1 | 0.803 | –
14 | Cc1cc(OCc2cc(C(=O)N(C)Cc3ccccn3)no2)cc(C)c1Cl | – | 0.035
15 | Cn1cncc1C(=O)N1CCC(C2CCN(c3ncccn3)CC2)C1 (centres undefined) | 0.813 | –
16 | COCCNC(=O)c1ccc(OC)cc1OC1CCN(Cc2ccc(F)cc2Cl)CC1 | – | 0.044
17 | C=CCO[C@H]1[C@H](NC(=O)CSC)c2ccccc2C12CCN(Cc1cc(OC)cc(OC)c1)CC2 | 0.961 | –
18 | COCCCNc1nc2nonc2nc1N(C)Cc1ccc(F)cc1 | – | 0.86
19 | O=C(CCC1CCN(C(=O)CC2=CCCCC2)CC1)NCC1CCCO1 (centres undefined) | – | 0.83

Quoted from above, nos. 2–3
Row | Compound | bacterial growth OD600 (polymyxin B 0.75 µg/mL) | bacterial growth OD600 (polymyxin B 1 µg/mL)
2 | COC(=O)c1ccc(CN2CCCC(c3[nH]ncc3Cc3ccccc3)C2)cc1 (centres undefined) | 0.92 | –
3 | CCOC(=O)N1CCN(C(=O)c2ccc3oc(CCc4ccccc4)nc3c2)CC1 | – | 0.902
